Source: publication PMC10115779
No constants are given. Whether binding was seen depends on the method and setting. In cells and extracts the contact can be indirect. A result given as binding can be weak or reduced; the word gives no strength.

Protein sequences, listed by entry. Tags and fused reporters are not part of them. Lines headed by an entry give the natural chain unless they say otherwise; changes in a name come on top.
UniProt Q8RY59: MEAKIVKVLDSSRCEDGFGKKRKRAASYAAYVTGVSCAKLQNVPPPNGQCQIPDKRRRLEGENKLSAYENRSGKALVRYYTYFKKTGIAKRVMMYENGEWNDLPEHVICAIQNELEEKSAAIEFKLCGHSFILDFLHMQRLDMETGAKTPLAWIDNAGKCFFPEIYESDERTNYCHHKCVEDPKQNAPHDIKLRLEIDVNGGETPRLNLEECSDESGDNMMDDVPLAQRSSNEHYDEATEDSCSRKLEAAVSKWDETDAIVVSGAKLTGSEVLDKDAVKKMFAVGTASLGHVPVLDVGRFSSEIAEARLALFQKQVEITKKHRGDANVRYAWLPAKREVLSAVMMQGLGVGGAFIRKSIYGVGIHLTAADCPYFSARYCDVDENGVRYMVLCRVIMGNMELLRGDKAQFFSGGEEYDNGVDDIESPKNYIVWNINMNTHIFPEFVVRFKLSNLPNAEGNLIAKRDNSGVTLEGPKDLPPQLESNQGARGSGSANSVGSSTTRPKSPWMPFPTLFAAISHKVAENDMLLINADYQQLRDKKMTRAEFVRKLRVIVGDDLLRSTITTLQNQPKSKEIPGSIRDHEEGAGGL
UniProt Q9SQR8: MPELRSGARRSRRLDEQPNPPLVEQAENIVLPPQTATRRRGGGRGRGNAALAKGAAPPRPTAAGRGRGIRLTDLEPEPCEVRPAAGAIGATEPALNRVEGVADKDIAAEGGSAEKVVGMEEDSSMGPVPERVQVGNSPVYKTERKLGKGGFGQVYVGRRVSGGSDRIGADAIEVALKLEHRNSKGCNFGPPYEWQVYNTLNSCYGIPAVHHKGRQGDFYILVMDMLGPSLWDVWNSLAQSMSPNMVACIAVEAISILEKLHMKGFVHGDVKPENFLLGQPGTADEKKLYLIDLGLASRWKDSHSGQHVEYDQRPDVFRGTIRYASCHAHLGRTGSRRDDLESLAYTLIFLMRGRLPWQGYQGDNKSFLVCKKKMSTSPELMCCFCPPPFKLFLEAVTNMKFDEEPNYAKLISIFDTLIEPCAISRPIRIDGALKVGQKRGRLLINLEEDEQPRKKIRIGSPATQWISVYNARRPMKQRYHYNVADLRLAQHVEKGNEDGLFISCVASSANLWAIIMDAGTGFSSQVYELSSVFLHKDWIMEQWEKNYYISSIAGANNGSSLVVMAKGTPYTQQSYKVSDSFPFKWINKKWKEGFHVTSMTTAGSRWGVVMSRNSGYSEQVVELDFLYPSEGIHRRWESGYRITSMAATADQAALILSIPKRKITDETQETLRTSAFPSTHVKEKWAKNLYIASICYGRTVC

Biological target: RADICAL-INDUCED CELL DEATH1 (RCD1), GFP fusion (Arabidopsis thaliana) (UniProt Q8RY59)
Assay: co-IP; RCD1-GFP and PPK-3xHA co-expressed transiently in N. benthamiana leaves; extract in 50 mM Tris-HCl pH 7.5, 150 mM NaCl, 10% glycerol, 1 mM EDTA, 5 mM DTT, 10 uM MG132; captured on anti-GFP-nanobody magnetic beads, 4 C, 5 min; blots with anti-GFP and anti-HA

Photoregulatory Protein Kinase 3 (PPK3), 3xHA fusion (from UniProt Q9SQR8) (enzyme)
binding: binds
